The results in this text go back to PubChem BioAssay AID1487 (National Center for Advancing Translational Sciences (NCATS), 2009).

This is one part of the list. The main result of the screen is listed elsewhere. These columns were measured beside it and carry no call. Compounds called inactive in the main read-out are mostly missing here. Potencies come from curve fits of mixed quality, noted in brackets.

As a reminder, the AC50 is the midpoint of the concentration-response curve, whichever way the signal moves.

A short description of the assay: qHTS Assay for Modulators of Lamin A Splicing. The note with it: HeLa LMNA splicing GFP/RFP minigene ratio, 48 h. The method, boiled down: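 S3 HeLa cells stably expressing lamin A-EGFP splicing minigene plus DsRed2, 600 cells/well, 48 h compound exposure at 37C. Laser-scanning cytometry; analysed as GFP (500-530 nm)/RFP (575-640 nm) total intensity ratio; 0.5% DMSO vehicle.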
(In general: qHTS replaces the single test concentration by a dilution series.)

Setting [1] is: measured here: RFP viability control channel.
Where [2] appears, read: measured here: GFP splicing reporter channel.

Regarding `COc1ccc(CN(C)CC(=O)Nc2ccc(Cl)cc2C(F)(F)F)c(OC)c1`, the AC50 under setting [1] was 14.1 µM [rising, partial curve].
On the same count and under the same terms, next, `O=C(NCc1cccs1)c1ccc2c(c1)ncn2C1CCCC1`: 0.0501 µM [falling, full curve, poor fit].
Regarding `CC(=O)NCc1cc(-c2ccc(Cl)cc2)no1`, the AC50 under setting [2] is 0.0708 µM [rising, full curve, poor fit].
Take `Nc1c(C(=O)NCc2ccc(F)cc2)c2nc3ccccc3nc2n1CCCN1CCOCC1`: the AC50 runs as follows: under setting [2], 20 µM [falling, partial curve]; under setting [1], 12.6 µM [falling, partial curve, poor fit].
As to `CSc1nc(Sc2cccc(Cl)c2)c2ccccc2n1`, the AC50 was 35.5 µM [falling, single point] under setting [2] and 35.5 µM [falling, single point] under setting [1].
For `COc1ccc(-c2ccc(CCC(=O)O)o2)cc1`, the AC50 under setting [2] was 10 µM [falling, partial curve].
On the same count and under the same terms, under `CCOc1ccc(NC(=O)CCC(=O)OC)cc1` stands 35.5 µM [rising, single point].
`CC(C)OC(=O)N(C)c1ccc(C(O)(C(F)(F)F)C(F)(F)F)cc1`: the AC50 under setting [1] is 0.398 µM [rising, full curve, poor fit].
Regarding `CCc1c(C)sc2c1CCN(C(=O)Nc1ccccc1C(=O)OC)C2c1ccc(F)cc1` (stereo not given), the AC50 by setting is: under setting [2], 0.112 µM [rising, full curve, poor fit]; under setting [1], 1.26 µM [rising, full curve].
On to `Cc1ccc(-c2[nH]nc(N)c2N=Nc2ccccc2C)cc1`, for which the AC50 by setting is: under setting [2], 22.4 µM [falling, single point]; under setting [1], 22.4 µM [falling, partial curve].
Consider `CCOC(=O)C(C(=O)OCC)N(C#N)c1nc(N(C)C)nc(N(C)C)n1`, for which the AC50 under setting [2] was 0.01 µM [rising, full curve, poor fit].
Same read-out and setting: next, `CCCOc1ccc2c3c(c(=O)oc2c1OCCC)CCCC3`: 35.5 µM [falling, single point].
As for `C=CCOc1c(Br)cc(CNc2ccc(NC(=O)C(C)C)c(OC)c2)cc1OCC`, the AC50 under setting [1] was 1.41 µM [rising, partial curve].
On the same count and under the same terms, under `CCCCCCCOc1ccc(OC(=O)c2cccnc2)cc1` stands 3.16 µM [rising, partial curve].
For the compound `COc1cccc(C(c2nnnn2Cc2ccco2)N2CCN(c3cccc(C)c3C)CC2)c1OC` (stereo not given), the half-maximal activity concentration (AC50) was 10 µM [rising, single point] under setting [2] and 12.6 µM [rising, single point] under setting [1].
For `CCc1cccc(C)c1NC(=O)CSc1nc2ccc(N3C(=O)c4ccccc4C3=O)cc2s1`, under setting [1], the AC50 was 15.8 µM [falling, partial curve].
Consider `COc1cc(/C=C2\COC/C(=C\c3ccc(O)c(OC)c3)C2=O)ccc1O`, for which the AC50 was 2.51 µM [falling, partial curve, poor fit] under setting [2] and 2.82 µM [falling, partial curve] under setting [1].
For `CCOC(=O)/C=C1\SCC(=O)N1Cc1ccc(Br)cc1`, under setting [1], the concentration at half-maximal activity (AC50) was 35.5 µM [rising, single point].
Take `CC(C)CC(NC(=O)C(CO)NC(=O)C1CCC(=O)N1)C(N)=O` (stereo not given): the AC50 under setting [2] was 1 µM [falling, partial curve, poor fit].
Turning to `O=C1CCc2ccc(OCCCCN3CCN(c4cccc(Cl)c4Cl)CC3)cc2N1`, the AC50 was 1.78 µM [falling, partial curve, poor fit] under setting [2] and 8.91 µM [rising, partial curve, poor fit] under setting [1].
As to `CC(C)(C)c1ccc(C(=O)NNc2ncnc3c2cnn3-c2ccccc2)cc1`, the AC50 under setting [2] was 25.1 µM [falling, partial curve] and the AC50 under setting [1] is 28.2 µM [falling, partial curve].
As for `CCCCn1c(SCC(=O)c2ccccc2)nc2ccsc2c1=O`, the AC50 under setting [2] was 14.1 µM [rising, single point] and the AC50 under setting [1] is 31.6 µM [rising, single point].
Regarding `O=C(Nc1nnc(CSCc2ccc(Cl)cc2)s1)c1cccc([N+](=O)[O-])c1`, the AC50 under setting [1] is 17.8 µM [rising, partial curve, poor fit].
For the compound `CC(C)Oc1ccc(CN=C(N)N=C(N)N)cc1Cl`, the AC50 under setting [1] was 11.2 µM [rising, partial curve, poor fit].
Same read-out and setting: under `Cc1cccc(NC(=S)N(CCCN2CCOCC2)Cc2cn(C)c3ccccc23)c1` stands 5.62 µM [rising, full curve, poor fit].
As for `Cc1ccc(-n2c(C)cc(/C=N\NC(=O)CC(=O)NC(C)C)c2C)cc1`, under setting [2], the AC50 was 17.8 µM [rising, single point].
Consider `O=C(C1CCC(Cn2c(=S)[nH]c3ccccc3c2=O)CC1)N1CCOCC1` (stereo not given), for which the AC50 by setting is: under setting [2], 31.6 µM [rising, single point]; under setting [1], 31.6 µM [rising, single point].
`CNCc1ccccc1Sc1ccc(O)c(O)c1`: the concentration at half-maximal activity (AC50) is 31.6 µM [rising, single point] under setting [2] and 35.5 µM [rising, single point] under setting [1].
Regarding `OC(CN1CCN(Cc2ccccc2)CC1)Cn1c2ccccc2c2ccccc21` (stereo not given), the AC50 under setting [1] was 2 µM [rising, partial curve, poor fit].
On the same count and under the same terms, next, `COCCNC(=O)/C(C#N)=C/c1c(F)cccc1Cl`: 7.08 µM [rising, full curve, poor fit]; `c1ccc(CCn2nnnc2C(c2cccs2)N2CCN(Cc3ccc4c(c3)OCO4)CC2)cc1` (stereo not given): 28.2 µM [rising, single point].
Same read-out and setting: next, `O=C(NCc1cccnc1)c1ccc(Cl)c(S(=O)(=O)N2CCCCCC2)c1`: 22.4 µM [rising, single point].
As for `c1ccc2c3c([nH]c2c1)C1(CCCCC1)NCC3`, the AC50 reads like this: under setting [2], 0.112 µM [falling, single point]; under setting [1], 0.141 µM [falling, single point].
Consider `CC(C)OC(=O)/C(C#N)=C/c1cn(Cc2ccccc2)c2ccccc12`, for which the AC50 under setting [1] was 35.5 µM [rising, single point].
In the case of `CC1(C)COC(c2ccc(F)c([N+](=O)[O-])c2)=N1`, the AC50 by setting is: under setting [2], 35.5 µM [falling, single point]; under setting [1], 35.5 µM [falling, single point].
On to `CN(C)CCOC(c1ccc(Cl)cc1)c1ccccn1` (stereo not given), for which the AC50 under setting [2] is 20 µM [falling, single point] and the AC50 under setting [1] was 35.5 µM [falling, single point].
